Measurements reported in PubChem BioAssay AID686943 (Drosophila RNAi Screening Center, 2013)
Aim: 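Knockdowns that increase or decrease active ERK after insulin receptor stimulation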 (primary screen). System: Drosophila S2R+ haemocyte-like cells expressing YFP-tagged ERK (Rolled). Reagents: long dsRNA against Drosophila genes. Conditions: insulin stimulation versus unstimulated cells; dose and duration not given. Measurement: 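Per-plate z-scores of phospho-ERK immunostaining normalised to YFP-tagged ERK, measured with and without insulin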. Reading the numbers: replicate 1, z-score of dpERK with insulin and replicate 2, z-score of dpERK with insulin: higher = more active ERK per ERK-YFP after insulin; replicate 1, z-score of dpERK under basal conditions: higher = more basal active ERK per ERK-YFP; replicate 1, z-score of ERK-YFP with insulin: higher = more YFP-tagged ERK signal.
In all, the deposit lists about 23,000 reagents; shown is a random part of those that have a named target and a result. 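Extra replicates exist only for a retested subset of genes; insulin dose and duration not given; both raised and lowered dpERK matter.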 A plus sign joins genes that one reagent is predicted to hit. No sequences are given here. Not stated in the record: the amount of reagent, the time to read-out.

predicted target	dsRNA	replicate 1, z-score of dpERK with insulin	replicate 2, z-score of dpERK with insulin	replicate 1, z-score of dpERK under basal conditions	replicate 1, z-score of ERK-YFP with insulin
CG1983	DRSC15410	0.17	0.13	-0.33	-0.1
Gr36b	DRSC21637	0.07	-0.14	-0.11	0.03
TAF1C-like	DRSC04073	0.91	-0.44	1.19	0.08
CG12911	DRSC06226	-0.76	0.09	-0.03	0.68
Nfs1	DRSC02154	-0.36	-0.09	-0.46	0.9
Alms1b + Alms1a	DRSC18559	0.03	0.18	-0.1	-0.53
ocm	DRSC04360	0.17	0.55	-1.43	2.83
pkaap	DRSC01925	0.11	0	1.57	-0.4
CG10674	DRSC09775	0.59	0.21		0.17
CG7299	DRSC03043	0.09	0.3	-1.61	3.12
CG13796 + CG31904	DRSC22161	-0.6	-0.02	-0.56	-0.37
MAN1	DRSC04342	-0.33	-0.17	-0.36	-0.04
CG7745	DRSC07037	-2.57	-2.79	-1.47	-1.52
CG42570	DRSC09391	0.04	-0.5	0.04	-0.35
CG31759	DRSC01230	0.52	0.05	-0.79	-0.69
snoRNA:Me28S-C3420b + RpS11	DRSC07396	0.08	-0.41	0.39	0.02
dsd	DRSC13829	0.23	0.01	0.99	-0.24
dsd	DRSC15850	2.23	-0.97	-0.41	-0.29
Cep290	DRSC08359	0.93	1.57	-1.22	0.54
CG7798	DRSC07047	0.27	0.46	-0.72	-0.09
Remo	DRSC19710	-0.96	-0.81	-0.9	1.17
CG4497	DRSC02754	-0.79	-1.22	0.52	-0.32
wkd	DRSC15777	0.09	0.54	1.17	0.46

Reprinted from the entries so far, 3 entries:
predicted target	dsRNA	replicate 1, z-score of dpERK with insulin	replicate 2, z-score of dpERK with insulin	replicate 1, z-score of dpERK under basal conditions	replicate 1, z-score of ERK-YFP with insulin
MAN1	DRSC04342	-0.33	-0.17	-0.36	-0.04
CG7745	DRSC07037	-2.57	-2.79	-1.47	-1.52
CG42570	DRSC09391	0.04	-0.5	0.04	-0.35
